According to patent US6080739A (priority 1996, dated 2000):

Experiments:
[1] = test system: MCF-7; format: cell-based
[2] = test system: MCF7-ADR; conditions: read-out: IC50 MCF7-ADR

COc1cc2c(c(OC)c1OC)-c1ccc(OC)c(=O)cc1[C@@H](NC(C)=O)CC2 [Colchicine]
IC50 [1]: 1.8 nM
IC50 [2]: 12 µM
